Results: PubChem BioAssay AID1656 (Sanford-Burnham Center for Chemical Genomics, 2009)
The list shows a part of the results. Some tests of the compounds listed are not included; inactive here does not mean inactive elsewhere.

Test: oleate-induced lipid droplet accumulation in AML12 cells – imaging, high-throughput imaging, BODIPY stain, primary screen (AID 1656);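 also: cells counted across two imaged fields per well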
Details: AML12 mouse hepatocytes, oleate lipid droplets, measured here: cell count, cytotoxicity flag, at 6.5 µM
Summary of the method: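 Test system: AML12 mouse liver cells; schedule: overnight exposure; technique: high-content imaging of BODIPY-stained droplets and DAPI nuclei; read-out: % inhibition of corrected integrated BODIPY droplet signal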

Structure (SMILES) | cell count [cells]
O=C(OC1CN2CCC1CC2)C(CO)(c1ccccc1)c1ccccc1 (stereo unspecified) | 709
COc1ccc(Br)c(C(=O)NCC2(N3CCCCC3)CCCCC2)c1 | 711
CN(C)C1(CNC(=O)c2ccc(Br)cc2)CCCCC1 | 827
COc1cc(C(=O)NCC2(N(C)C)CCCCC2)c([N+](=O)[O-])cc1OC | 858
COc1ccc(Cl)cc1C(=O)NCC1(N(C)C)CCCCC1 | 777
COc1cccc(C(=O)NCC2(N3CCCCC3)CCCCC2)c1 | 683
O=C(NCC1(N2CCCCC2)CCCCC1)c1cccc(Cl)c1 | 782
CN(C)c1ccc(C(=O)NCC2(N(C)C)CCCCC2)cc1 | 833
CN(C)C1CCCC1OC(=O)C(O)(c1ccccc1)c1ccccc1 (stereo unspecified) | 672
Cc1ccccc1C(=O)NCC1(N2CCCCC2)CCCCC1 | 685
O=C(NCC1(N2CCCCC2)CCCCC1)c1cc(F)c(F)cc1Cl | 768
C=CCN1CCN(CCOC(=O)C(O)(c2ccccc2)c2ccccc2)CC1 | 733
COc1ccc(C(=O)NCC2(N(C)C)CCCCC2)cc1 | 690
O=C(NCC1(N2CCCCC2)CCCCC1)c1cccc(Br)c1 | 831
CCN1CCCC(OC(=O)C2(O)c3ccccc3C=Cc3ccccc32)C1 (stereo unspecified) | 710
Cc1cc(C(=O)NCC2(N3CCCCC3)CCCCC2)ccc1[N+](=O)[O-] | 843
O=C(NCC1(N2CCCCC2)CCCCC1)c1cc([N+](=O)[O-])ccc1Cl | 687
CN1[C@@H]2CC[C@H]1CC(OC(=O)C(O)(c1ccccc1)c1ccccc1)C2 (stereo partly specified) | 798
COc1cc(SC)ccc1C(=O)NCC1(N(C)C)CCCCC1 | 847
CCN(CC)CC(C)C(C)OC(=O)C(O)(c1ccccc1)c1ccccc1 (stereo unspecified) | 715
Cc1ccc(C(=O)NCC2(N3CCCCC3)CCCCC2)cc1 | 737
